From US7338929
These are yes or no findings as the source states them, for the method shown. Some binding calls cover weakened binding; strength is not graded here.

Chains of the proteins cited; added tags and fusions are not shown. Lines headed by an entry give the natural chain unless they say otherwise; changes in a name come on top. A line that says so, or that is headed by a name, gives the form on record, which may keep a tag or linker. Residues count along the entry.
IL-13 (P35225, residues 33-146): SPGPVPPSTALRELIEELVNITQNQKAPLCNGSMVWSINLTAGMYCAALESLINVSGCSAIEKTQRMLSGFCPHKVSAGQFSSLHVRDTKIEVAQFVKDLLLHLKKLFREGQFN
IL-13.E13K (P35225, form named): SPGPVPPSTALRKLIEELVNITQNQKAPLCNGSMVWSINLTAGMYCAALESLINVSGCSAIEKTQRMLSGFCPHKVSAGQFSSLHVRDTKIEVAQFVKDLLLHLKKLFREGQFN

Columns and labels:
[1] = molecular target: T1, IL-13Rα2 (interleukin 13 receptor subunit alpha 2), full length, expressed on transfected cells (human) (UniProt Q14627); assay: binding of 125I-labeled IL-13 to CHO cells transfected with IL-13Rα2
T1 sequence: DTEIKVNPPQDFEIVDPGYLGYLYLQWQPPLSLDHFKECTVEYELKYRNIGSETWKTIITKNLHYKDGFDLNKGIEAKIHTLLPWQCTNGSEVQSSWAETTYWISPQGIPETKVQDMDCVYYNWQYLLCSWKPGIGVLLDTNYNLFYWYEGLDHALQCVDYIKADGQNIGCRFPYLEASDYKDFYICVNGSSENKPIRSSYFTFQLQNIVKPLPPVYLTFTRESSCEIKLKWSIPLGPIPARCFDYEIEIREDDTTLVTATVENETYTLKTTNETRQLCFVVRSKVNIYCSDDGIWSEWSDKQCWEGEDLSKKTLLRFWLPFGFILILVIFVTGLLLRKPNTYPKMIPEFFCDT

[2] = molecular target: T1, IL-13Rα2 (interleukin 13 receptor subunit alpha 2), full length, expressed on transfected cells (human); assay: displacement of 125I-labeled IL-13 from CHO cells transfected with IL-13Rα2

With “IL-13 (from UniProt P35225 33-146) (ligand)” the binding [1] was “binds”.

“IL-13.E13K (from UniProt P35225 33-146) (ligand)” was tested, and the binding [2] was “binds”.
